According to PMC10163288:
The list shows a part of the results.

B1: il2ra_site2_2erj_sap_27_mot_HHH_b1_08185_000000106_0001_41_55_H_._HHH_b1_07526_af2_0001_0000800010_0000001_0_0001 (protein)
chain: SSSSDWLEEAYELANEAMRLIEERDDEELEKVLELLEEIAEKANNPSIEEIVESLRRSFKSSSSS
B2: il2ra_site1_1z92_sap_14_mot_HHH_b1_07537_af2_000000083_0001_43_56_H_._08167eb7329a42484cd5255d2447d7e3_0001_0001_0000200038_0000001_0_0001_af2pred_0001_af2pred (protein)
chain: DEEVEKAIEAAEEAGFSPENIVKALLAALARHLKVPPEEALQFLLEVLRRLGDPELVEIVEELLR
B3: il2ra_site2_3nfp_normal_mot_HHH_b1_03516_af2_000000045_0001_38_52_H_._HHH_b1_06009_0001_0000200017_0000001_0 (protein)
chain: SSSSHREDLIRALLILAKRLVEELEDPELQRELERLIEELEREGDPHIAIRLAELLNKINSSSSS
B4: il2ra_site2_2erj_sap_16_mot_HHH_b1_03572_af2_000000164_0001_41_56_H_._HHH_b1_07106_0001_0000700021_0000001_0_0001_af2pred_0001_af2pred (protein)
chain: SSSSDVEEEIEELIEEAKRLLEEGDPERAEEVLLEASRLAFEARDEELYEELLRLLEELESSSSS
B5: il2ra_site2_2erj_sap_23_mot_HHH_b1_00821_000000191_0001_1_20_H_._HHH_b2_02170_0001_0000700016_0000001_0_0001 (protein)
chain: SSSSSDVEEEVRELLERAEEAYEEGDLHLVYELAVRALHLAARHNDREALRLIREVFERLSSSSS
B6: il2ra_site2_3nfp_sap_27_mot_HHH_b1_05437_000000005_0001_40_57_H_._HHH_b1_07835_af2_0001_0000100004_0000001_0_0001 (protein)
chain: SSSSDHAEEYLRAALELAKEALELGDPEAARRIVEMALVAAESNNDEELLEEIRELLEELSSSSS
B7: il2ra_site1_3nfp_normal_mot_HHH_b2_02053_000000240_0001_1_20_H_._97e99672e168623ff83a69b38e8865de_0001_1_0001_0000300024_0000001_0_af2pred_0001_af2pred (protein)
chain: DAEEAVERLVEIAVRNNNPKVLRKILRTLEAFFGDPEEAEEFLHELIEKVLGDPEEAERLVREAK
B8: il2ra_site2_3nfp_normal_mot_HHH_b2_05281_000000198_0001_39_56_H_._HHH_b2_05191_0001_0000100006_0000001_0 (protein)
chain: SSSSDYEERVRELLEEVEELIKEGDEERARELLAEATHIAYENRDHELFALVAELAFKIVQSSSS
B9: il2ra_site1_2b5i_sap_11_mot_HHH_b1_06258_af2_000000112_0001_42_56_H_._HHH_b2_06437_af2_0001_0000300015_0000001_0_0001_af2pred_dldesign_0_af2pred (protein)
chain: SSSSSEEVEKVYDLFKKALELWRAGKKEEARELLEEALALAEALGLTNYVADLKRFLSLLSSSSS
B10: il2ra_site1_1z92_normal_mot_b1fbee8209167eaadba3689d49187f1a_0001_1_af2_000000019_0001_16_31_H_._5511cb2176c827d1feb3066af2f534d5_0001_0001_0000100006_0000001_0 … (protein)
chain: PEELAEEAKELLRNGNPEEAEKVLRELARELGNEEAFKKDLELAEKFLGDPRLALKALISVLSRF
B11: il2ra_site2_2erj_normal_mot_HHH_b2_01353_af2_000000049_0001_23_39_H_._HHH_b1_00034_af2_0001_0001300051_0000001_0 (protein)
chain: SSSSDEEERIKELLKEAEELLENGNPEEAEEVLREAAELAFELGNFELFSEVLEILHELNSSSSS
B12: il2ra_site1_3nfp_normal_mot_HHH_b2_02053_000000240_0001_1_20_H_._7c16d87a9f88b4a3e37f3bc2238c8c9d_0001_1_af2_0001_0000100004_0000001_0_af2pred_0001_af2pred (protein)
chain: SILTELLRLAAEQNNPESLRRIVEQLVRTLGDPEEARKLLEELLEEYGDPVIEEAIEILEELIEK
B13: il2ra_site2_2erj_normal_mot_HHH_b1_03107_000000098_0001_39_52_H_._HHH_b2_01166_0001_0000100004_0000001_0 (protein)
chain: SSSSTEVWEEVARLLAEALELFKEGDEEEVEKLLQEAKRLAEENNDEALERYVEFARRDASSSSS
B14: il2ra_site1_3nfp_normal_mot_7a4252a17c26caee427851ffd8bc664f_0001_000000112_0001_1_12_H_._HHH_b2_06852_af2_0001_0000100002_0000001_0 (protein)
chain: SSSSSEEEERLLELAQELTRAFWEGDKEEARKLAEEALELAEELNDERARKQLERFLKELSSSSS
B15: il2ra_site1_2b5i_normal_mot_HHH_b2_04910_000000118_0001_1_19_H_._HHH_b1_06846_af2_0001_0000300021_0000001_0_af2pred_dldesign_0_af2pred (protein)
chain: SSSSSSPTAEAIALFKKADELYKAGKYEEAKKLLEEARELAEKNGNKSLAKAIKLALESISSSSS
B16: il2ra_site1_2b5i_sap_20_mot_HHH_b2_01776_af2_000000178_0001_1_14_H_._HHH_b2_00329_0001_0000100002_0000001_0_0001_af2pred_0001_af2pred_1 (protein)
chain: SSSSTEELRELVHFIFELLHKFGLSSEQARELNQLAAELADKGVSVEEIKELLRELAEELSSSSS
B17: il2ra_site2_2erj_normal_mot_HHH_b1_04373_af2_000000118_0001_18_33_H_._HHH_b1_05737_0001_0000200011_0000001_0 (protein)
chain: SSSSDLEEVYELAVRALRLLAEGNPEEAEKVLKEAEEILEKAGNEDAVRFLEELFELFERSSSSS
B18: il2ra_site2_3nfp_sap_20_mot_HHH_b1_02226_af2_000000060_0001_38_52_H_._46479c6699afdbd8d5d5faf00326b0b9_0001_1_0001_0000100001_0000001_0_0001 (protein)
chain: SSSSDNAEEYLRAALELAKEAIEEGDEELARRHLRLVILAAEDNGDEEVLEEAERLLEEISSSSS
B19: il2ra_site2_2erj_sap_23_mot_HHH_b2_05012_af2_000000134_0001_1_19_H_._HHH_b2_03538_0001_0000400015_0000001_0_0001 (protein)
chain: SSSSSDLHRLYELANELLRLLAEGDEERFEEVLEEAERLAEKLQDDNTKEFLELLERLLKSSSSS
B20: il2ra_site2_3nfp_normal_mot_HHH_b1_05785_af2_000000002_0001_41_57_H_._HHH_b1_05540_af2_0001_0000400027_0000001_0 (protein)
chain: SSSSDEAEEYLRAALLLLELAVREGDEEQFERHLHAVRLLAESLHDEEVRERLEELEELIKSSSS
B21: il2ra_site2_3nfp_normal_mot_HHH_b2_03377_000000137_0001_25_41_H_._HHH_b1_03268_af2_0001_0000100007_0000001_0 (protein)
chain: SSSSSEERVEELLEEARELAKEGNPEEAREILREAAEIAYELRNHELFALIAEVIFLVVQLSSSS
B22: il2ra_site1_1z92_normal_mot_HHH_b1_01250_000000104_0001_1_17_H_._HHH_b2_06740_0001_0000100006_0000001_0_af2pred_0001_af2pred (protein)
chain: SSSNEEQLRKDARIIVETAVKLAGLSEEDEKILEEVAEKLVEEGFDLEEISRILDEVALELLSSS
B23: il2ra_site1_3nfp_sap_14_mot_HHH_b1_07440_af2_000000231_0001_1_19_H_._HHH_b2_02190_0001_0000300007_0000001_1_0001 (protein)
chain: SSSSSEMEEAFELVRKLWEASHNGDKELAKELAEELFELAEEINDRIALRFAEEVLKQLNSSSSS
B24: il2ra_site1_1z92_sap_11_mot_2f77cdb525a7c630ef91a614e4fe6388_0001_000000110_0001_1_12_H_._HHH_eva_0027_0001_0000200020_0000001_0_0001 (protein)
chain: SSSSDEELREVVERLVEKYNLSEDAKRALEWAVEDLEELGQDEHTAKKFLERLAEMIRKLLSSSS

Target: il2ra, P01589
Assay: yeast display titration

Apparent Kd, inactive:
B1 no binding seen, B2 no binding seen, B3 no binding seen, B4 no binding seen, B5 no binding seen, B6 no binding seen, B7 no binding seen, B8 no binding seen, B9 no binding seen, B10 no binding seen, B11 no binding seen, B12 no binding seen, B13 no binding seen, B14 no binding seen, B15 no binding seen, B16 no binding seen, B17 no binding seen, B18 no binding seen, B19 no binding seen, B20 no binding seen, B21 no binding seen, B22 no binding seen, B23 no binding seen, B24 no binding seen
